Laboratory results taken from US6683052B1, “Lipopeptides containing an interferon-γ fragment, and uses thereof in pharmaceutical compositions” (Institut National de la Sante et de la Recherche Medicale …, priority 1998, dated 2004).
Not every detail of the peptide structures is certain; ends, links or a residue may be inferred. Where a SMILES comes first, the peptide text is derived from it. The star is where a group is joined. Palmitoyl = CCCCCCCCCCCCCCCC(=O)*

System: L929 cells infected with the VSV virus
Format: cell-based, mouse
Settings: 1 to 10 μM

**Q.** CCCCCCCCCCCCCCCC(=O)NCCCC[C@H](NC(C)=O)C(=O)N[C@@H](C)C(=O)N[C@@H](CCCCN)C(=O)N[C@@H](Cc1ccccc1)C(=O)N[C@@H](CCC(=O)O)C(=O)N[C@H](C(=O)N[C@@H](CC(N)=O)C(=O)N[C@@H](CC(N)=O)C(=O)N1CCC[C@H]1C(=O)N[C@@H](CCC(N)=O)C(=O)N[C@H](C(=O)N[C@@H](CCC(N)=O)C(=O)N[C@@H](CCCNC(=N)N)C(=O)N[C@@H](CCC(N)=O)C(=O)N[C@@H](C)C(=O)N[C@@H](Cc1ccccc1)C(=O)N[C@@H](CC(N)=O)C(=O)N[C@@H](CCC(=O)O)C(=O)N[C@@H](CC(C)C)C(=O)N[C@H](C(=O)N[C@@H](CCCNC(=N)N)C(=O)N[C@H](C(=O)N[C@H](C(=O)N[C@@H](Cc1c[nH]cn1)C(=O)N[C@@H](CCC(N)=O)C(=O)N[C@@H](CC(C)C)C(=O)N[C@@H](CC(C)C)C(=O)N1CCC[C@H]1C(=O)N[C@@H](CCC(=O)O)C(=O)N[C@@H](CO)C(=O)N[C@@H](CO)C(=O)N[C@@H](CC(C)C)C(=O)N[C@@H](CCCNC(=N)N)C(=O)N[C@@H](CCCCN)C(=O)N[C@@H](CCCNC(=N)N)C(=O)N[C@@H](CCCCN)C(=O)N[C@@H](CCCNC(=N)N)C(=O)N[C@@H](CO)C(=O)N[C@@H](CCCNC(=N)N)C(N)=O)C(C)C)C(C)C)[C@@H](C)CC)C(C)C)C(C)C [MuL] (Ac-K(Palmitoyl)AKFEVNNPQVQRQAFNELIRVVHQLLPESSLRKRKRSR-NH2) was tested. Which “effect on viral lysis (FIG. 2)” value did it give?
**A.** resistance to viral lysis
